Test system: NCI-H358 cells
Assay: Drug exposure with or without simulated forces, 6-well Bioflex plates, live cell count and exponential growth model
Assay type: cell-based, human
Design: key: ↑: Up arrow indicates the statistically significant increase; ↓: down arrow indicates the decrease; horizontal arrows indicate no change in growth rates
Settings: for Change in Growth Rate: with versus without forces, drug at IC90
Description: Treatments 1, 2 and 3 served as unstretched controls for Treatments 4, 5 and 6, respectively. For each cell line and drug, all treatments were independently repeated at least 3 times on different days, with 3 replicates per Treatments 1 and 4 (n=9) and 5 replicates per all other treatments (n=15).
The NCI-H358 (ATCC® CRL-5807) and A549 (ATCC® CCL-185) cell lines were obtained from American Type Culture Collection (ATCC, Manassas, Va.) and cultured in RPMI-1640 (NCI-H358) and HAM's F12K (A549) media containing 10% Fetal Bovine Serum (Sigma Aldrich, St. Louis, Mo.) and 1% Penicillin Streptomycin (Sigma Aldrich). Cells were passaged in 75 cm2 culture flasks at 37° C. in 5% CO2, and trypsinized using TryplE™ Express (Gibco) containing phenol red.
Cells were plated in 6-well Bioflex® plates (Flexcell® International Corporation, Hillsborough, N.C.). Each well of the plate has a flexible elastic membrane coated with a thin layer of type I collagen. Type I collagen was chosen since it more accurately represents the physiology of lung tumor cells in vivo. The Flexcell is not configured for drug studies as described herein, and had to be modified as described herein. […] Therefore, to have the same number of cells in culture at the time of drug exposure, initial seeding densities for treatments not involving simulated forces (Treatments 1-3) and those involving forces (Treatments 4-6) were adjusted for each cell line. In Treatments 1, 2 and 3, NCI-H358 and A549 cells were plated at a density of 100,000 and 20,000 cells/well in 2 ml of corresponding media, respectively. For treatments involving simulated forces (Treatments 4-6), NCI-H358 and A549 cells were plated at a density of 170,000 and 35,000 cells/well, respectively.
After allowing the cells to adhere to the membrane for 24 hours, the plates assigned for simulated forces were stretched using the FX-4000 Tension plus unit (Flexcell® International Corporation, Hillsborough, N.C.). The Flexcell unit was configured to deliver an alternating positive and negative pressure beneath the cell culture surfaces. Negative pressure pulls the culture surface down over a stationary Delrin post on the baseplate, delivering a uniform biaxial strain to the cells, and subsequent application of positive pressure releases this distension (FIGS. 9A and 9B.) In this manner, the alternating positive and negative pressure simulates forces experienced during respiration. Culture plates experiencing forces were fitted with rubber gaskets and placed on circular loading stations in the baseplate. […] Cells were preconditioned with mechanical forces for 48 hours, in an incubator at 37° C., 5% CO2 and 95% relative humidity.
After 72 hours of initial seeding, one of the five drugs was added to Treatments 3 and 6 of each cell line. […] The IC90, concentration of the drug that inhibits the growth of 90% of the cells in a static monolayer culture, was used to assure a significant inhibition in the absence of simulated forces. To insure comparability, an aliquot of 1 ml of media without the drug was added to each well in Treatments 2 and 5. After adding the drug or 1 ml of media, the plates from Treatments 5 and 6 were placed back on the baseplate and subjected to the same force profile as before for the remaining 72 hours. […]
Cells were trypsinized and counted at the end of day 3 in Treatments 1 and 4, and at the end of day 6 in the other treatments, using a Beckman Coulter Vi-Cell Analyzer (Beckman Coulter, Fullerton, Calif.). […]

Structure (SMILES) | Change in effectiveness due to forces (Ef versus E) | Change in Growth Rate
COc1cc2c(Nc3ccc(Br)cc3F)ncnc2cc1OCC1CCN(C)CC1 [Zactima] | ↑ | ↓
N.N.[Cl][Pt][Cl] [Cisplatin] | – | ↓
COc1cccc2c1C(=O)c1c(O)c3c(c(O)c1C2=O)C[C@@](O)(C(=O)CO)C[C@@H]3O[C@H]1C[C@H](N)[C@H](O)[C@H](C)O1 [Doxorubicin] | – | ↓
CC(=O)O[C@H]1C(=O)[C@@]2(C)[C@H]([C@H](OC(=O)c3ccccc3)[C@]3(O)C[C@H](OC(=O)[C@H](O)[C@@H](NC(=O)c4ccccc4)c4ccccc4)C(C)=C1C3(C)C)[C@]1(OC(C)=O)CO[C@@H]1C[C@@H]2O [Paclitaxel] | – | ↓

Source: US20130059324A1, “SYSTEMS AND METHODS FOR MECHANICALLY STRAINED CELL CULTURE” (THE UNIVERSITY OF KANSAS, priority 2010, published 2013)
